The source of these data is paper PMC4129401.

The target of assay [1] is T1, nephrocystin-4 (encoded by NPHP4) (UniProt O75161).
T1 sequence: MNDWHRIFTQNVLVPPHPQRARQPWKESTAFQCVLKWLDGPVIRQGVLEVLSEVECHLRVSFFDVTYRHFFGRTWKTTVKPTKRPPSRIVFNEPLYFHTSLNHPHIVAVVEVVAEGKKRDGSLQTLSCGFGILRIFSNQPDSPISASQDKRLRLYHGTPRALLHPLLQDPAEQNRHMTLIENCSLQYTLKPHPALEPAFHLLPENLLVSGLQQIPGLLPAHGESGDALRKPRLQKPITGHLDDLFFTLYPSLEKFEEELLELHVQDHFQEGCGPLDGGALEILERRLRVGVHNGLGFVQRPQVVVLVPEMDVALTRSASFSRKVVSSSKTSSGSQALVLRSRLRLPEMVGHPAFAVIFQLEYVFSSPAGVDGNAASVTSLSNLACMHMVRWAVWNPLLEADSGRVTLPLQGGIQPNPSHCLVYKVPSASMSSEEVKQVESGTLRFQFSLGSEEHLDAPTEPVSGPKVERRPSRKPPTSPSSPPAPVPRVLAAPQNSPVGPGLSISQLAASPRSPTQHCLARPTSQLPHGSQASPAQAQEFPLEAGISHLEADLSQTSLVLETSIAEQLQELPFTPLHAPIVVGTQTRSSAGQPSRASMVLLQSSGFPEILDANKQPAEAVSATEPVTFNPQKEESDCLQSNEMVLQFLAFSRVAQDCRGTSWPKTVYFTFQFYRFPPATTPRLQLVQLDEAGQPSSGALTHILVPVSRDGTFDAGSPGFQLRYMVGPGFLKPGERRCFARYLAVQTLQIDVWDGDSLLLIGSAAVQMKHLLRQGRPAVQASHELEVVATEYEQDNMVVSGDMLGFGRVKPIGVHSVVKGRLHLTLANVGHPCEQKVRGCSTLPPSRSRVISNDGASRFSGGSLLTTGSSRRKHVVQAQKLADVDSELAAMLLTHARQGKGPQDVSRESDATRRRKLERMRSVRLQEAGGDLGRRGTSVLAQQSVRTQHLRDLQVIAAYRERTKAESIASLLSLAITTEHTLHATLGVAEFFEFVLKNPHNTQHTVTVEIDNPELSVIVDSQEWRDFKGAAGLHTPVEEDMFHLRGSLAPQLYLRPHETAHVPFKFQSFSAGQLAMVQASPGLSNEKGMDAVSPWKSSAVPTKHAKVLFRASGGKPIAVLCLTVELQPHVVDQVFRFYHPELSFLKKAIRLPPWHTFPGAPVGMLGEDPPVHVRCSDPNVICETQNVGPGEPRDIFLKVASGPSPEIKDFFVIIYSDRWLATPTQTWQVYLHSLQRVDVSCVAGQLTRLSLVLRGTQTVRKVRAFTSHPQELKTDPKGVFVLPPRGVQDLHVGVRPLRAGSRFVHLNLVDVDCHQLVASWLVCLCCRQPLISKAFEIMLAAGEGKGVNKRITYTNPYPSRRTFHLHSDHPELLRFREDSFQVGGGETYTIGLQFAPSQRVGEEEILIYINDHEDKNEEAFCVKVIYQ
The assay is described as follows: co-IP; HEK293T cells, cosynthesis for 48 hr; lysis in 50 mM Tris-HCl pH 7.5, 150 mM NaCl, 0.5% Triton X-100; anti-FLAG M2 agarose, 5 hr at 4°C; immunoblot with anti-HA or anti-FLAG.

Assay [2] concerns the target T2, 3×HA-POC1B-p.Gln67del (human) (UniProt Q8TC44).
T2 sequence: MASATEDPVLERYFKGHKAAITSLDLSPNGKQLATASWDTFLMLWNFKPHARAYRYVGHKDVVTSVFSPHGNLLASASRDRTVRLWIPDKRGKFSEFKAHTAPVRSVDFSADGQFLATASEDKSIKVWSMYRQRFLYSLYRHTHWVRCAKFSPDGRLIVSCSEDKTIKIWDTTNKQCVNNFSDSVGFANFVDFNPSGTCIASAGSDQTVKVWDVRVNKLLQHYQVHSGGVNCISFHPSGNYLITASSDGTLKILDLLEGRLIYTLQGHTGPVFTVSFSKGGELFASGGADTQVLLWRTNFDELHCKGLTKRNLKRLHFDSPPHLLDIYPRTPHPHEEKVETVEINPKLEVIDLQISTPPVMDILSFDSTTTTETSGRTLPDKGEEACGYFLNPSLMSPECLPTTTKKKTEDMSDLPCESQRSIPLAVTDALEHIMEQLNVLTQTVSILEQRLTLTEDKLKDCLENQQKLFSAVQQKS
Kind of assay: co-IP; reciprocal: HEK293T cells, cosynthesis for 48 hr; lysis in 50 mM Tris-HCl pH 7.5, 150 mM NaCl, 0.5% Triton X-100; anti-HA affinity matrix, 5 hr at 4°C; immunoblot with anti-HA or anti-FLAG. (In western blotting, separated proteins are transferred to a membrane and probed.)

Assay [3] deals with T3, 3×HA-POC1B wild-type (full-length, 478 amino acids) (human) (UniProt Q8TC44).
T3 sequence: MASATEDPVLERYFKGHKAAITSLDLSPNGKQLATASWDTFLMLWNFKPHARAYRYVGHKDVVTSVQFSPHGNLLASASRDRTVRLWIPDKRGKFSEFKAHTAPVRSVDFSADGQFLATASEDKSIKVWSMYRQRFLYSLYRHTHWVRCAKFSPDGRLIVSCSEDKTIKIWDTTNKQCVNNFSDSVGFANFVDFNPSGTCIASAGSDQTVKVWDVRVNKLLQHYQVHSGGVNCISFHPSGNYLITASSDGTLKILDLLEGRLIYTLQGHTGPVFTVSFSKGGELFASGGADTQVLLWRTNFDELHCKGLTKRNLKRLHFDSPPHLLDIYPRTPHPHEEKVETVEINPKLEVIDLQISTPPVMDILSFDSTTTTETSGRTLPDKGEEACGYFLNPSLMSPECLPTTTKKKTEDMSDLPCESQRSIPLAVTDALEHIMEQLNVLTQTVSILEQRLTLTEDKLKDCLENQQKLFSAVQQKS
Described as above.

For assay [4], the target named is T4, 3×HA-POC1B-p.Arg106Pro (human) (UniProt Q8TC44).
T4 sequence: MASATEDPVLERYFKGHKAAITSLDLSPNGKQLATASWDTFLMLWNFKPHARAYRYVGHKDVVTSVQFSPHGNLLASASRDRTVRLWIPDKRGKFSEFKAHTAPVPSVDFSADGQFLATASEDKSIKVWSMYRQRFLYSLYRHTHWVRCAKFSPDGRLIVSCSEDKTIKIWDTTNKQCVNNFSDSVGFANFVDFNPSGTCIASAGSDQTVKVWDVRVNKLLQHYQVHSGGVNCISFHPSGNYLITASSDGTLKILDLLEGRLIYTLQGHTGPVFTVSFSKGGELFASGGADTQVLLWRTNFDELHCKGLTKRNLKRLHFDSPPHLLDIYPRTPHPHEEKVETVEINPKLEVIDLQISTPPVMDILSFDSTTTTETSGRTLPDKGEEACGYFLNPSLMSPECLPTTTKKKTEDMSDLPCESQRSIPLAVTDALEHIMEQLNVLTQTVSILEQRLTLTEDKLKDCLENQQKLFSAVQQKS
The description is as above.

No constants are given. Whether binding was seen depends on the method and setting. In cells and extracts the contact can be indirect. Some entries that bind do so weakly or less than the wild type. For some of these results: Where a sequence is shown, tags or fusion partners need not be part of it.

B1: RPGRIP1 (protein, UniProt Q96KN7 1-1286)
chain: MSHLVDPTSGDLPVRDIDAIPLVLPASKGKNMKTQPPLSRMNREELEDSFFRLREDHMLVKELSWKQQDEIKRLRTTLLRLTAAGRDLRVAEEAAPLSETARRGQKAGWRQRLSMHQRPQMHRLQGHFHCVGPASPRRAQPRVQVGHRQLHTAGAPVPEKPKRGPRDRLSYTAPPSFKEHATNENRGEVASKPSELVSGSNSIISFSSVISMAKPIGLCMPNSAHIMASNTMQVEEPPKSPEKMWPKDENFEQRSSLECAQKAAELRASIKEKVELIRLKKLLHERNASLVMTKAQLTEVQEAYETLLQKNQGILSAAHEALLKQVNELRAELKEESKKAVSLKSQLEDVSILQMTLKEFQERVEDLEKERKLLNDNYDKLLESMLDSSDSSSQPHWSNELIAEQLQQQVSQLQDQLDAELEDKRKVLLELSREKAQNEDLKLEVTNILQKHKQEVELLQNAATISQPPDRQSEPATHPAVLQENTQIEPSEPKNQEEKKLSQVLNELQVSHAETTLELEKTRDMLILQRKINVCYQEELEAMMTKADNDNRDHKEKLERLTRLLDLKNNRIKQLEGILRSHDLPTSEQLKDVAYGTRPLSLCLETLPAHGDEDKVDISLLHQGENLFELHIHQAFLTSAALAQAGDTQPTTFCTYSFYDFETHCTPLSVGPQPLYDFTSQYVMETDSLFLHYLQEASARLDIHQAMASEHSTLAAGWICFDRVLETVEKVHGLATLIGAGGEEFGVLEYWMRLRFPIKPSLQACNKRKKAQVYLSTDVLGGRKAQEEEFRSESWEPQNELWIEITKCCGLRSRWLGTQPSPYAVYRFFTFSDHDTAIIPASNNPYFRDQARFPVLVTSDLDHYLRREALSIHVFDDEDLEPGSYLGRARVPLLPLAKNESIKGDFNLTDPAEKPNGSIQVQLDWKFPYIPPESFLKPEAQTKGKDTKDSSKISSEEEKASFPSQDQMASPEVPIEAGQYRSKRKPPHGGERKEKEHQVVSYSRRKHGKRIGVQGKNRMEYLSLNILNGNTPEQVNYTEWKFSETNSFIGDGFKNQHEEEEMTLSHSALKQKEPLHPVNDKESSEQGSEVSEAQTTDSDDVIVPPMSQKYPKADSEKMCIEIVSLAFYPEAEVMSDENIKQVYVEYKFYDLPLSETETPVSLRKPRAGEEIHFHFSKVIDLDPQEQQGRRRFLFDMLNGQDPDQGHLKFTVVSDPLDEEKKECEEVGYAYLQLWQILESGRDILEQELDIVSPEDLATPIGRLKVSLQAAAVLHAIYKEMTEDLFS
Turning to B1, the binding entry in assay [1] was “binds”.

B2: 3×FLAG-FAM161A (full-length) (protein, UniProt Q3B820 1-660)
chain: MATSHRVAKLVASSLQTPVNPITGARVAQYEREDPLKALAAAEAILEDEEEEKVAQPAGASADLNTSFSGVDEHAPISYEDFVNFPDIHHSNEEYFKKVEELKAAHIETMAKLEKMYQDKLHLKEVQPVVIREDSLSDSSRSVSEKNSYHPVSLMTSFSEPDLGQSSSLYVSSSEEELPNLEKEYPRKNRMMTYAKELINNMWTDFCVEDYIRCKDTGFHAAEKRRKKRKEWVPTITVPEPFQMMIREQKKKEESMKSKSDIEMVHKALKKQEEDPEYKKKFRANPVPASVFLPLYHDLVKQKEERRRSLKEKSKEALLASQKPFKFIAREEQKRAAREKQLRDFLKYKKKTNRFKARPIPRSTYGSTTNDKLKEEELYRNLRTQLRAQEHLQNSSPLPCRSACGCRNPRCPEQAVKLKCKHKVRCPTPDFEDLPERYQKHLSEHKSPKLLTVCKPFDLHASPHASIKREKILADIEADEENLKETRWPYLSPRRKSPVRCAGVNPVPCNCNPPVPTVSSRGREQAVRKSEKERMREYQRELEEREEKLKKRPLLFERVAQKNARMAAEKHYSNTLKALGISDEFVSKKGQSGKVLEYFNNQETKSVTEDKESFNEEEKIEERENGEENYFIDTNSQDSYKEKDEANEESEEEKSVEESH
On to B2, for which the binding result in assay [2], in assay [3] and in assay [4] was “binds” throughout.
